Not every detail of the peptide structures is certain; ends, links or a residue may be inferred. Peptide text beside a SMILES is read from it.
Experiments:
[1] = target: S. aureus MetRS (Staphylococcus aureus, UniProt Q5HII6); assay: S. aureus MetRS aminoacylation (functional charging) assay; assay type: biochemical
Method: The activity of S. aureus MetRS was monitored by the aminoacylation reaction. The enzyme was diluted in 50 mM HEPES, pH 7.55, 5 mM DTT and 0.01% BSA. A typical 50 μL reaction mixture contained 30 mM HEPES, pH 7.5, 10 mM MgCl2, 30 mM KCl, 90 μM E. coli tRNA, 2 mM ATP and 5 μM [^3H]-methionine (10 Ci/mmol). The reaction was initiated by addition of enzyme at 25° C. At 4 different timepoints, 10 μL of the reaction was quenched into 150 μL cold 5% TCA on a Millipore filter plate. The filter plate is then washed three times with cold 5% TCA followed by water and then ethanol. The filter plate was dried before addition of 100 μL Packard Microscint-20 and counted on a Packard Top-Count microplate scintillation counter.
Inhibition studies were performed for the peptides against two of the substrates, ATP and methionine. This was done at varying concentrations of peptides by holding the concentration of one substrate at its K value (1.5 mM for ATP and 5 μM for methionine), while varying the other substrate concentration around its Km value. The initial velocity data obtained were then analyzed using GraFit.

Protein sequences, listed by entry. Tags and fused reporters are not part of them. Lines headed by an entry give the natural chain unless they say otherwise; changes in a name come on top.
UniProt Q5HII6: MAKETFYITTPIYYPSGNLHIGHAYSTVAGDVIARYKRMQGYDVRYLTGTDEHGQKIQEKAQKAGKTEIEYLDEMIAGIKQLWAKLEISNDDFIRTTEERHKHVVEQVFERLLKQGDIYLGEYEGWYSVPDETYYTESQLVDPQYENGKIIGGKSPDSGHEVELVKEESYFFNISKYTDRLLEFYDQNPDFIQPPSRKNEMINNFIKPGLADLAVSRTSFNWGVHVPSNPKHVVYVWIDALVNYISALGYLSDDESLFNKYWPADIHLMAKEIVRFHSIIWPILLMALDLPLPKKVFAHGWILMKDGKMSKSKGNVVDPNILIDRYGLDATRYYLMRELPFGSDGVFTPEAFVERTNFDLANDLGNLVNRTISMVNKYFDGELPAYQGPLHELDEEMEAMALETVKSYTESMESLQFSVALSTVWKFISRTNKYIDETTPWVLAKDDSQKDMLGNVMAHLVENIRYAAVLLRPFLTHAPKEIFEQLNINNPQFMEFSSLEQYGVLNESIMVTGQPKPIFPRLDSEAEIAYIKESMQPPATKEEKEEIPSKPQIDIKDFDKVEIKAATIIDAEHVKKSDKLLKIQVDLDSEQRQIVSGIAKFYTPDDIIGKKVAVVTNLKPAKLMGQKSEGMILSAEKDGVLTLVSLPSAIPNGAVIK
UniProt P16659: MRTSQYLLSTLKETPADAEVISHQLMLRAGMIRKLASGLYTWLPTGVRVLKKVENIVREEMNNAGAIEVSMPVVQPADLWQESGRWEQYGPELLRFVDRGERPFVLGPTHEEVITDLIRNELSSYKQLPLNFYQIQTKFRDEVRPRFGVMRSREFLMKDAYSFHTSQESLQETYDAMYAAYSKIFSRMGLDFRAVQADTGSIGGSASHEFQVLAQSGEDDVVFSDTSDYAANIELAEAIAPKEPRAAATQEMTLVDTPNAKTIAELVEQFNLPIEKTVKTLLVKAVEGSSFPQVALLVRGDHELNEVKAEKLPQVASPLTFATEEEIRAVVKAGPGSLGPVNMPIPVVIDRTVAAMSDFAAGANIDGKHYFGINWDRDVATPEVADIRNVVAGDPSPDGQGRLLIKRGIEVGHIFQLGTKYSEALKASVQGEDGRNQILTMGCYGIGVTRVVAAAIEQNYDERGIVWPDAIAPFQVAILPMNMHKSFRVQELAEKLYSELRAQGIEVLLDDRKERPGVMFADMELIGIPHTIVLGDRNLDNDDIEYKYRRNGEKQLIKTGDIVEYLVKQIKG

[2] = tested on: E. coli JM109/pSC/pC^3844; assay: E. coli growth in culture upon regulated expression of Pro-3/GST; assay type: cell-based, Escherichia coli; conditions: anhydrotetracycline induction, compared with GST alone
Method: Overnight cultures of JM109/pSC cells harboring pC^3844 (JM109/pSC/pC^3844), or pPROTet-GST (same as pC^3844 without the Pro-3 peptide sequence) were diluted 100-fold in fresh LB medium containing 34 μg/mL chloramphenicol and 50 μg/mL spectinomycin. After 2 hours growth at 37° C., 100 μL aliquots of each of these bacterial cultures were transferred to wells of a 96-well microtiter plate, with or without 10 ng of anhydrotetracycline dissolved in 1 μL ethanol. The growth of bacterial cultures, which were constantly under agitation, was monitored with a plate reader (SpectraMAX-250, Molecular Devices).

[3] = target: T1, E. coli ProRS (Escherichia coli, UniProt P16659); assay: E. coli ProRS tRNA charging (aminoacylation) inhibition; assay type: biochemical
T1 construct: made in house
Description: In order to produce pure protein for peptide selection, the E. coli ProRS gene (Genbank accession number: M97858) was PCR amplified and cloned into the pET-20b vector (Novagen) using standard molecular cloning protocols (J. Sambrook, et al., Molecular Cloning: A Laboratory Manual, 2nd edition, Cold Spring Harbor Laboratory Press, 1989). The overexpressed ProRS was purified sequentially on Q- and SP-Sepharose columns. […] Thirteen clones from phages that were identified as having a high affinity to ProRS were sequenced. These clones share 4 different sequences, 3 of which are closely related (Table l). See Example 4 of WO98/19162, published 7 May 1998.
The peptide having sequence number 3 was synthesized and tested for inhibition of tRNA charging activity of E. coli ProRS. […] This peptide is called Pro-3 (also, Pro3).
The expressed Pro-3/GST fusion protein was purified on a glutathione-agarose affinity column according to a procedure provided by Pharmacia (see, cg., procedures manual from Pharmacia P-L Biochemicals, Inc.: GST Gene Fusion System, regarding use of pGEX expression vectors and glutathione-S-transferase fusion proteins, 1993). The N-terminal sequence of the purified protein was determined by Edman cycles and confirmed to have the expected Pro-3 peptide sequence. […]

[4] = tested on: E. coli JM109/pSC/pC^3844; assay: Lethal i.p. infection in mice, induced in vivo expression of Pro-3; set-up: species or system CD-1 female mice; conditions: mouse model
Description: Intracellularly expressed Pro-3 was expected to bind to and inhibit a specific essential cellular target in a manner similar to that of an antimicrobial drug. Pro-3 was expected to cure the infection when its expression was induced in an animal model of bacterial infection. An established animal infection model was used to test this concept (C. O. Onyeji et al., Antimicrob. Agents Chemother. 38:1112-1117 (1994)).
Eight groups of CD-1 female mice (5 mice per group, Charles River Laboratories; Wilmington, Mass.) weighing 20-24 g were used in this experiment. The inoculum was prepared from E. coli JM109/pSC/pC^3844 which was cultured at 37° C. for 17 hr in Luria-Bertani broth containing spectinomycin and chloramphenicol, and then 100 μl of the culture was diluted to 1 ml with medium for reading OD at 600 nm (0.2403, the medium as blank). The turbidity of a 0.5 McFarland standard is equivalent to OD6000.1, or 10^8 cfu/ml. Then 3×10^9 cfu (colony-forming units) of E. coli JM109/pSC/pC^3844 (1.25 ml) from the overnight culture were diluted to 15 ml with 0.01 M phosphate buffered saline (Sigma P-0261) containing 8% hog gastric mucin (Sigma M-2378), 100 μg/ml spectinomycin and 68 μg/ml chloramphenicol. Each mouse of groups 1 through 4 was injected with 0.5 ml of the inoculum intraperitoneally (i.p.), equivalent to 1×10^8 cfu/mouse (lethal dose). […]

Compound	Mechanism of Inhibition, ATP [1]	Mechanism of Inhibition, Methionine [1]	Mode of inhibition of S. aureus MetRS [1]	E. coli growth (OD600) upon expression [2]	Ki ([3]; read-out: K, (inhibition of E. coli ProRS aminoacylation activity)) [nM]	Mode of inhibition of E. coli ProRS ([3]; versus proline and ATP)	Effect of in vivo intracellular expression on lethal infection [4]
CSCC[C@H](NC(=O)[C@@H]1CCCN1C(=O)[C@H](Cc1c[nH]c2ccccc12)NC(=O)[C@H](CCCNC(=N)N)NC(=O)[C@H](CC(C)C)NC(=O)[C@H](CCC(N)=O)NC(=O)[C@H](Cc1c[nH]c2ccccc12)NC(=O)[C@@H](NC(=O)[C@H](CC(N)=O)NC(=O)[C@@H]1CCCN1C(=O)[C@@H](N)CC(=O)O)[C@@H](C)O)C(=O)N[C@@H](Cc1c[nH]cn1)C(=O)O [JT01, DPNTWQLRWPMH] (H-DPNTWQLRWPMH-OH; N-terminus and C-terminus assumed)	Compe-	Competitive	competitive inhibitor	–	–	–	–
C[C@@H](O)[C@H](NC(=O)[C@@H]1CCCN1C(=O)[C@H](CC(N)=O)NC(=O)[C@H](Cc1ccc(O)cc1)NC(=O)[C@H](CC(=O)O)NC(=O)[C@H](CCCNC(=N)N)NC(=O)[C@H](Cc1c[nH]c2ccccc12)NC(=O)[C@H](Cc1ccccc1)NC(=O)[C@H](Cc1c[nH]cn1)NC(=O)[C@H](Cc1c[nH]c2ccccc12)NC(=O)[C@H](CCC(=O)O)NC(=O)[C@H](CCCNC(=N)N)NC(=O)[C@@H](N)CO)C(=O)N[C@@H](CO)C(=O)N[C@@H](CCCNC(=N)N)C(=O)O [Pro-3, SREWHFWRDYNPTSR] (H-SREWHFWRDYNPTSR-OH; N-terminus and C-terminus assumed)	–	–	–	specifically inhibited	300	competitive inhibition with both proline and ATP	cures a lethal infection

— patent US6846625B1, “Method for identifying validated target and assay combination for drug development” (priority 1998, dated 2005)
